According to patent US4080467A, “Pharmaceutical compositions comprising 1,3-dithiolan-2-ylidene malonate derivatives” (Nihon Nohyaku Co., Ltd., priority 1976, dated 1978):
At least one compound was matched to its structure with a doubt left.

Test system: bile flow and biliary salt
Experiment: Cholagogic action: bile flow and excretion of biliary salt
Type: in vivo, male rat (4 week-aged, SD-JCL strain)
Conditions: 200 mg/kg oral; in words
Experimental: The male rat (4 week-aged, SD-JCL strain) was anesthetized with sodium pentobarbital (37.5 mg/kg, intraperitoneal injection). The abdominal cavity was opened through a midline incision. The common bile duct was catheterized with polyethylene tube o.d. 0.8 mm. The catheter was brought to the outside through the abdominal incision wound prior to closing. Bile was collected from the catheter continuously with time intervals of one hour. The quantity of bile produced in one hour was determined by weighing and that of biliary salt was determined by enzymatic method (Ikagaku Jikkenho Koza 1B, Biological Constituents II, edited by Tamio YAMAKAWA). The amount of biliary salts was represented as cholic acid equivalent.
In the representation of the results, the quantities of bile and biliary salts produced in one hour prior to the administration of drug were taken as 100. The compound of this invention was orally administered at the dose of 200 mg/kg. As reference anethol trithion was used.

**Q.** With COc1ccc(-c2cc(=S)ss2)cc1 [Anethol trithion, anethol trithion, reference compound] as the compound, how does the “excretion of biliary salts” value read?
**A.** no particular increase was observed
